Experimental findings from patent US20140024132A1, “METHODS AND SYSTEMS USING INTEGRATED METABOLOMICS AND PHARMACOKINETICS FOR MULTI-COMPONENT DRUG EVALUATION” (priority 2010, published 2014) are described below.

In this test the test system is endogenous urinary metabolite profiles. Description: Altered endogenous urinary metabolites after a single Pu-erh tea intake, UPLC-QTOFMS and GC-TOFMS profiling. To be noted: human urine. In kind it is in vivo. The method, then: Participants received a dose equivalent to 5 cups of commercially prepared tea. Twenty healthy men (n=10) and women (n=10) whose mean age was 25±2 years (range 22-32) were enrolled in this study, and written consent was obtained from each participant.
Volunteers were provided with identical standard meals three times per day during the experiment (e.g., breakfast: milk and bread; lunch: beef and vegetables; dinner: pork and cabbage). […] Urine samples were stored at −80° C. before analysis.
The tea infusion used in this study and the collected urine samples were centrifuged at 13,000 rpm for 10 min at 4° C., and the resulting supernatants were immediately stored at −80° C. pending UPLC-QTOFMS analysis. Ultrapure water (500 μL) was added to the tea or urine sample (500 μL) and vortexed for 1 min. The sample was then filtered through a syringe filter (0.22 μm) for UPLC-QTOFMS analysis.; incorporated by reference herein in its entirety.
The tea infusion (100 μL) described in Example 2 and urine samples (100 μL) were spiked with two internal standard solutions (10 μL-2-chlorophenylalanine in water, 0.3 mg/ml; 10 μL heptadecanoic acid in methanol, 1 mg/mL), and vortexed for 10 seconds. The mixed solution was extracted with 300 μL of methanol:chloroform (v/v 3:1) and vortexed for 30 seconds. After storing for 10 min at −20° C., the samples were centrifuged at 10,000 rpm for 10 min. An aliquot of the 300 μL supernatant was transferred to a glass sampling vial to vacuum dry at room temperature. The residue was derivatized using a two-step procedure. First, 80 μL methoxyamine (15 mg/mL in pyridine,) was added to the vial and kept at 30° C. for 90 min followed by 80 μL BSTFA (1% TMCS) at 70° C. for 60 min. See protocols set forth in Ni et al., FEBS Lett. 581: 707-711 (2007).; incorporated by reference herein in its entirety.
UPLC: Tea and urine metabolite profiling were performed using a Waters ACQUITY UPLC system equipped with a binary solvent delivery manager and a sample manager (Waters Corporation, Milford, Mass., USA), coupled to a Micromass Q-TOF Premier mass spectrometry equipped with an electrospray interface (Waters Corporation, Milford, M A, USA). Chromatographic separations were performed on a 2.1×100 mm 1.7 μm ACQUITY BEH C18 chromatography column. The column was maintained at 45° C. and eluted with a 1-99% acetonitrile (0.1% (v/v) formic acid)-aqueous formic acid (0.1% (v/v) formic acid) gradient over 10 min at a flow rate of 0.40 mL/min. A 5 μL aliquot sample was injected onto the column.
Mass Spectrometry: The mass accuracy analysis and detailed MS parameters were optimized according to our prior studies, which is incorporated herein in its entirety. During metabolite profiling experiments, centroid data was acquired for each sample from 50 to 1000 Da with a 0.10 sec scan time and a 0.01 sec interscan delay over a 10 min analysis time. A metabonomics MS System Test Mixture including acetaminophen, tolbutamide, 3′-azido-3′-deoxythymidine, reserpine, verapamil and coumarin was used as chromatographic reference and mass accuracy quality control. This test mixture was injected every ten injections. The mass spectrometer was operated in positive ion mode. The desolvation temperature was set to 400° C. at a flow rate of 700 L/hr and source temperature of 100° C. The capillary and cone voltages were set to 3500 and 45 V, respectively. The data was collected between 50-1000 m/z with alternating collision energy, at 5 eV for precursor ion information generation and a collision profile from 10-40 eV for fragment ion information. The Q-TOF Premier™ was operated in v mode with 10,000 mass resolving power. Data were centroided during acquisition using independent reference lock-mass ions via the LockSpray™ interface to ensure mass accuracy and reproducibility. Leucine-enkephalin was used as the reference compound at a concentration of 50 pg/μL and an infusion flow rate of 0.05 mL/min.

For `NCCC[C@H](N)C(=O)O` [Ornithine], the “FC (fold change)” value runs as follows: (1 h after Pu-erh tea intake vs pre-dose) 0.51; (3 h after Pu-erh tea intake vs pre-dose) 0.33; (6 h after Pu-erh tea intake vs pre-dose) 1.36; (9 h after Pu-erh tea intake vs pre-dose) 4.29; (12 h after Pu-erh tea intake vs pre-dose) 5.10; (24 h after Pu-erh tea intake vs pre-dose) 2.90.
